Data on 1 compound can be found in PubChem BioAssay AID1159614 (National Center for Advancing Translational Sciences (NCATS), 2016).

Protein sequences, listed by entry. Tags and fused reporters are not part of them. Lines headed by an entry give the natural chain unless they say otherwise; changes in a name come on top.
UniProt P54803: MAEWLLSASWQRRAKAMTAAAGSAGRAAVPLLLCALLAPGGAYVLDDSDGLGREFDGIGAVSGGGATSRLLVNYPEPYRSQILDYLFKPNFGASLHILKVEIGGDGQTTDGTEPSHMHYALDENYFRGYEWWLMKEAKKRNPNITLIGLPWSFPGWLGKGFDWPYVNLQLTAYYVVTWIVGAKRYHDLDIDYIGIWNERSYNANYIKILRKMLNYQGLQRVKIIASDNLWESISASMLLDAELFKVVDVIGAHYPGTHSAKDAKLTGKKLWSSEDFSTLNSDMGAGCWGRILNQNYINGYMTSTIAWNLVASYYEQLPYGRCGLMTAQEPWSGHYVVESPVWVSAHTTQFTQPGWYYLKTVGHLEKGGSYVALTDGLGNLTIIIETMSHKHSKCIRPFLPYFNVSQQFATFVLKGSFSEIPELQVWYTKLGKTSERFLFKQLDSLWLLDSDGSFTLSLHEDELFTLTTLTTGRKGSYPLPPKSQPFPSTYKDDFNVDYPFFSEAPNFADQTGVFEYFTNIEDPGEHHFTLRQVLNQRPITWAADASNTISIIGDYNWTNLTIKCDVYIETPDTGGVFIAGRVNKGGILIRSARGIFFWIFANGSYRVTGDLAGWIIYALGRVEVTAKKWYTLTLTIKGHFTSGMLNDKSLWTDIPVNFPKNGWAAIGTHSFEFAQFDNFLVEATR

What follows is the remainder of the data, with few or none of the hits. Calls of active or inactive are those of the source. The call rests on the fitted dose curve; in most records, active means well fitted activation curve with a large enough effect; inconclusive means small, poorly fitted or top-dose-only effect; inactive means no such curve, though single readings can be large or run the other way.

The assay deals with Galactocerebrosidase (Homo sapiens) (UniProt P54803). Description: A Novel Cell-Based Assay to Identify Small Molecules for B -Galactocerebrosidase. Further: 0% is about no effect; nearly all actives have a fitted effect of over 65% in size. To be noted: 145M-Twi-hGALC-G270D cells (Twitcher mouse brain line with human GALC G270D), HMU-beta-Gal fluorescence, 48 h; at 57.5 µM (top of the series). From the text: Lysosomal storage diseases (LSDs) are caused by genetic mutations in genes encoding proteins important for normal lysosomal function. Globoid cell leukodystrophy (GLD), mostly known as Krabbe disease, is a prototype of the neurological LSDs caused by deficiency of beta-galactocerebrosidase (GALC). In brain specimens of GLD patients, psychosine levels are substantially elevated. At elevated concentrations, psychosine becomes cytotoxic to neuronal cells, particularly to oligodendrocytes (OLG), neural cells responsible for myelin formation. Therefore, the biochemical disturbances in GLD are manifested by different degrees of brain demyelination resulting in a broad spectrum of neurological manifestations. Most of the FDA-approved therapies are based on enzyme replacement therapeutic (ERT) agents, which treat non-neurological symptoms of Gaucher disease, Fabry disease, few mucopolysaccharidoses and Pompe disease. […]
A cell-based assay in 1,536-well plate format was developed to implement a quantitative high-throughput screening (qHTS) assay using GLD-disease relevant cells to identify small molecules that produce enhancements of the residual enzymatic activity levels of mutants GALC found and prevalent in GLD patients. […] After the treatment of live cells for a determined period, using a fluorescent GALC specific substrate, the mutant residual GALC activity is measured. […]
Take `CC(C)(C)c1ccc(O)cc1`: the activation is inactive: -10.1%.
